The list does not hold the whole screen: it gathers tests that were run many times, whatever their T/C, doses with no T/C, and many T/C values between a quarter and a half above the control. Other doses and runs of a compound stand elsewhere. T/C is the treated group as % of the vehicle group. Some doses have a count of surviving animals in place of a T/C: the source holds a T/C of zero for them, seemingly a mark for toxic or unscored doses. Some doses without a T/C left all or most animals alive at the check, yet need not have been tolerated: the source hardly ever lists a survival T/C far under the control, and the zero likely stands for such cases as well. Survivors were counted at the toxicity check, usually on the fifth day, unless a day is given; later deaths do not show. Schedules are NCI's codes, read here as Q, the interval in days (D) or hours (H), X, the number of doses. Some entries hold several experiments; the results are listed from low to high. Some schedules carry Z or #; the key to these is not given. Where survival is the endpoint, the PubChem record calls one and a half times the control and up active, and a quarter to a half above the control has no call in these data; cut-offs in other NCI protocols can differ. Some T/C values carry the count of animals alive at the toxicity check (mostly the fifth day); where none is given, no animal had died by that day.
Tested on: L1210 leukemia ip in BDF1 mice, survival T/C
Assay: NCI In Vivo Anticancer Drug Screen. Data for tumor model L1210 Leukemia (intraperitoneal) in B6D2F1 (BDF1) mice
Settings: T/C endpoint: mean survival time, higher T/C = longer survival
[1] = dose: 400.0 mg/kg/injection, schedule: Q01DX001 (ip), vehicle: saline with Tween-80
[2] = dose: 400.0 mg/kg/injection, schedule: Q04DX003 (ip), vehicle: saline with Tween-80
[3] = dose: 100.0 mg/kg/injection, schedule: Q04DX003 (ip), vehicle: saline with Tween-80
[4] = dose: 200.0 mg/kg/injection, schedule: Q04DX003 (ip), vehicle: saline with Tween-80
[5] = dose: 50.0 mg/kg/injection, schedule: Q01DX009 (ip), vehicle: saline
[6] = dose: 25.0 mg/kg/injection, schedule: Q01DX009 (ip), vehicle: saline with Tween-80
[7] = dose: 50.0 mg/kg/injection, schedule: Q01DX009 (ip), vehicle: saline with Tween-80
[8] = dose: 200.0 mg/kg/injection, schedule: Q01DX009 (ip), vehicle: saline with Tween-80

Question: For `CCCCC(/C=N\NC(=O)c1ccc[n+](C)c1)=C/c1ccccc1`, which survivor count [1] is on record?
Answer: 0 of 6

Question: Which survivor count (dose: 100.0 mg/kg/injection, schedule: Q01DX001 (ip), vehicle: carboxymethylcellulose (CMC)) does the source give for `CC1=C(C)C(=O)C=CC1=O` here?
Answer: 0 of 4

Question: What about the survivor count (dose: 200.0 mg/kg/injection, schedule: Q01DX001 (ip), vehicle: carboxymethylcellulose (CMC)) of the same compound?
Answer: 0 of 4

Question: And the survivor count (dose: 400.0 mg/kg/injection, schedule: Q01DX001 (ip), vehicle: carboxymethylcellulose (CMC))?
Answer: 0 of 4

Question: For `CCNC(=S)NNc1ccccc1`, which survivor count [2] is on record?
Answer: 3 of 6

Question: What does the source list for `C[n+]1ccccc1NC(=O)c1ccc(C(=O)Nc2cccc[n+]2C)cc1`?
Answer: survivor count (dose: 15.0 mg/kg/injection, schedule: Q01DX Z (ip), vehicle: saline): 6 of 6; survivor count (dose: 60.0 mg/kg/injection, schedule: Q01DX Z (ip), vehicle: saline): 6 of 6

Question: For `CCCCCCc1cccc(C)n1`, which survivor count (dose: 400.0 mg/kg/injection, schedule: Q01DX001 (ip), vehicle: saline) is on record?
Answer: 1 of 4

Question: How did the survivor count [3] turn out when `CCCCCCCCCCCCNC` was run?
Answer: 3 of 6

Question: And the survivor count [4]?
Answer: 6 of 6

Question: And the survivor count [2]?
Answer: 0 of 6

Question: For `CCCCCCCCCCCC[N+](C)(C)C.C[As](C)(=O)[O-]`, which survivor count [5] is on record?
Answer: 0 of 3

Question: What about the survivor count (dose: 100.0 mg/kg/injection, schedule: Q01DX009 (ip), vehicle: saline) of the same compound?
Answer: 0 of 3 and 5 of 6

Question: What about the survivor count (dose: 200.0 mg/kg/injection, schedule: Q01DX009 (ip), vehicle: saline) of the same compound?
Answer: 0 of 6

Question: And the survivor count (dose: 400.0 mg/kg/injection, schedule: Q01DX009 (ip), vehicle: saline)?
Answer: 0 of 6

Question: With `CCCCCCCCCC(C)CCCC` (stereo not given) as the compound, how does the survivor count [1] read?
Answer: 6 of 6

Question: Which survivor count (dose: 40.0 mg/kg/injection, schedule: Q01DX Z (ip), vehicle: carboxymethylcellulose (CMC)) does the source give for `N=C(N)/C=C\C(=O)O` here?
Answer: 0 of 6

Question: How did the survivor count [2] turn out when `CCN(CC)c1ccc(NC(=O)NC(C)C)cc1` was run?
Answer: 1 of 6

Question: For `CCCCOCN1CCCCC1`, which survivor count [2] is on record?
Answer: 0 of 6

Question: For `O=[N+]([O-])c1cc(Cl)[n+]([O-])c(Cl)c1`, which survivor count (dose: 150.0 mg/kg/injection, schedule: Q01DX001 (ip), vehicle: carboxymethylcellulose (CMC)) is on record?
Answer: 0 of 6

Question: And the survivor count (dose: 300.0 mg/kg/injection, schedule: Q01DX001 (ip), vehicle: carboxymethylcellulose (CMC))?
Answer: 1 of 6

Question: Which survivor count (dose: 400.0 mg/kg/injection, schedule: Q01DX009 (ip), vehicle: Klucel (hydroxypropylcellulose) (HPC)) does the source give for `S=c1[nH]ncn1-c1ccccc1` here?
Answer: 0 of 6

Question: With `C=C(Cl)CSCCS` as the compound, how does the survivor count [2] read?
Answer: 0 of 6

Question: With `CCC(=O)Nc1cccc2ccccc12` as the compound, how does the survivor count (dose: 100.0 mg/kg/injection, schedule: Q01DX009 (ip), vehicle: Klucel (hydroxypropylcellulose) (HPC)) read?
Answer: 6 of 6

Question: What about the survivor count (dose: 200.0 mg/kg/injection, schedule: Q01DX009 (ip), vehicle: Klucel (hydroxypropylcellulose) (HPC)) of the same compound?
Answer: 0 of 6

Question: What about the survivor count (dose: 400.0 mg/kg/injection, schedule: Q04DX003 (ip), vehicle: Klucel (hydroxypropylcellulose) (HPC)) of the same compound?
Answer: 1 of 6

Question: For `CCCCN(CCCC)C(=O)C1C=C2c3cccc4[nH]cc(c34)CC2N(C#N)C1` (stereo not given), which survivor count (dose: 400.0 mg/kg/injection, schedule: Q01DX009 (ip), vehicle: saline with Tween-80) is on record?
Answer: 6 of 6

Question: How did the survivor count [5] turn out when `OCC1C2CCC(CC2)C1CO` (stereo not given) was run?
Answer: 0 of 6

Question: What about the survivor count [3] of the same compound?
Answer: 2 of 6

Question: What about the survivor count [4] of the same compound?
Answer: 1 of 6

Question: What about the survivor count [2] of the same compound?
Answer: 0 of 6

Question: Which results are given for `O=C(CCc1ccccc1)NC(=S)Nc1cccc([N+](=O)[O-])c1`?
Answer: T/C [6]: 94, 101, 107 % of control; survivor count [6]: 3 of 3; T/C [7]: 88, 92, 93, 97, 108 % of control; survivor count [7]: 3 of 3; T/C (dose: 100.0 mg/kg/injection, schedule: Q01DX009 (ip), vehicle: saline with Tween-80): 89, 92, 93, 94, 95, 107 % of control; T/C [8]: 86 [5 of 6 alive] and 101 % of control [4 of 6 alive]; survivor count [8]: 1 of 3 and 3 of 3; survivor count [1]: 0 of 6; survivor count (dose: 400.0 mg/kg/injection, schedule: Q04DX002 (ip), vehicle: alcohol): 3 of 3

Reference: PubChem BioAssay AID248 (DTP/NCI, 2004)
